# In PubChem BioAssay AID445 (National Center for Advancing Translational Sciences (NCATS), 2006):
# The other results are listed elsewhere or left out. Further columns of the screen follow, without active or inactive calls. Compounds called inactive in the main read-out are mostly missing here. Words in brackets tell the shape of the fitted curve; partial curves, single points and poor fits give uncertain potencies.
# Assay: IkB Signaling
# Details: ABC-DLBCL IkBa-CBG/CBR dual luciferase ratio (green luciferase fused to IkBa over red control in OCI-Ly3 lymphoma cells), 4 h; measured here: control luc red channel unless noted
# Summary of the method: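 Luminescence ratio of IκBα-fused green versus native red beetle luciferase in OCI-Ly3 cells, 4 h post-doxycycline with compound; red signal alone, scaled from basal (0%) to zero light (-100%), flagged nonspecific or cytotoxic effects.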
row,SMILES,AC50
1,Cc1ccc(-c2[nH]c(-c3ccccc3)nc2SCC(=O)NCC2CCCO2)cc1 (centres undefined),"20 µM [falling, partial curve]"
2,CCNC(=O)NC(=O)COC(=O)c1ccccc1SCC(=O)NC(=O)NCC,"2.51 µM [falling, full curve]"
3,CCOC(=O)c1ccc2c(c1)N(Cc1ccccc1)C(=O)c1ccccc1S2,"39.8 µM [falling, single point]"
4,CCCCc1ccc(NC(=O)CSc2nc3ccccc3nc2N2CCOCC2)cc1,"5.01 µM [falling, partial curve]"
5,O=C(Nc1cc(Cl)cc(Cl)c1)c1ccc(F)c(S(=O)(=O)NC2CCCCC2)c1,"20 µM [falling, partial curve]"
6,COc1cccc(-c2cc(C(=O)Nc3ccn(Cc4ccc(C)cc4)n3)no2)c1,"7.94 µM [falling, partial curve]"
7,CC(C)c1ccc2oc(-c3ccc(NC(=O)c4cc5ccccc5o4)cc3)nc2c1,"1 µM [falling, full curve]"
8,NC(=O)CSc1nnc(Cc2csc(Nc3ccccc3)n2)n1Cc1ccccc1,"3.98 µM [falling, partial curve]"
9,COc1ccc(C2C(=O)N(C3CCCCCC3)CC(=O)N2CCC2=CCCCC2)cc1 (centres undefined),"15.8 µM [falling, partial curve]"
10,CS(=O)(=O)N1CCCc2cc(C(=O)Nc3cccc(C(F)(F)F)c3)ccc21,"31.6 µM [falling, partial curve]"
11,CC(=O)c1ccc(N2CCN(c3ncnc4onc(C)c34)CC2)cc1,"2.51 µM [falling, partial curve]"
12,CC1CCC(NC(=O)c2ccc(CS(=O)(=O)c3c(Cl)cccc3Cl)o2)CC1 (centres undefined),"31.6 µM [falling, single point]"
13,CCOC(=O)c1ccc2c(c1)nc(C1CCN(S(=O)(=O)c3cccs3)CC1)n2CC,"20 µM [falling, partial curve]"
14,COc1cc(-c2nc(-c3cccc(Cl)c3)c(-c3ccccc3)[nH]2)cc(OC)c1OC,"7.94 µM [falling, full curve]"
15,COc1ccc(OCC(=O)Nc2ccccc2C(=O)OCc2cc(=O)n3nc(C)sc3n2)cc1,"1.58 µM [falling, partial curve]"
16,COC(=O)c1ccc(CSc2nc3c(c(=O)[nH]2)CCC3)cc1,"15.8 µM [falling, single point]"
17,Cn1c(=O)cc(SCC(=O)N2CCN(c3ccccc3F)CC2)c2cc(Cl)ccc21,"20 µM [falling, partial curve]"
18,COc1cc(Cn2c(=O)sc3ccccc32)ccc1OCCC(C)C,"12.6 µM [falling, partial curve, poor fit]"
19,CC(C)c1ccc2c(c1)-c1ccccc1S(=O)(=O)N2CC(=O)N1CCCCC1,"39.8 µM [falling, single point]"
20,O=C(CSc1ncc(-c2ccccc2)[nH]1)Nc1cccc(C(F)(F)F)c1,"31.6 µM [falling, partial curve]"

# Rewritten as tab-separated lines: part of the list above.
row	SMILES	AC50
2	CCNC(=O)NC(=O)COC(=O)c1ccccc1SCC(=O)NC(=O)NCC	2.51 µM [falling, full curve]
3	CCOC(=O)c1ccc2c(c1)N(Cc1ccccc1)C(=O)c1ccccc1S2	39.8 µM [falling, single point]
4	CCCCc1ccc(NC(=O)CSc2nc3ccccc3nc2N2CCOCC2)cc1	5.01 µM [falling, partial curve]

# Continued:

row,SMILES,AC50
1,O=C1c2ccccc2C(=O)N1CC#CCN1CCN(C2CCCCC2)CC1,"31.6 µM [falling, single point]"
2,O=C(c1ccco1)N1c2ccccc2Sc2ccccc21,"15.8 µM [falling, partial curve]"
3,Cc1ccccc1-c1nc(CS(=O)(=O)CC(=O)Nc2cc(Cl)cc(Cl)c2)c(C)o1,"15.8 µM [falling, partial curve]"
4,COc1ccc2nc(NC(=O)CSC3=NCCS3)sc2c1,"31.6 µM [falling, single point]"
5,COc1ccc(-c2cc(C(C)=O)c(C)n2CCC(=O)Nc2ccc(C(F)(F)F)cc2)cc1,"39.8 µM [rising, partial curve, poor fit]"
6,COc1ccccc1NC(=O)Cn1c(=O)n(Cc2ccccc2)c(=O)c2c3c(sc21)CN(C(C)=O)CC3,"2 µM [rising, partial curve]"
7,COc1ccccc1CNC(=O)Cn1c(=O)oc2cc(S(=O)(=O)NCc3ccccc3)ccc21,"39.8 µM [falling, single point]"
8,CC1=C(C(=O)Nc2ccc(Cl)cc2)C(C(C)C)n2nc(SCc3ccc(Cl)cc3)nc2N1 (centres undefined),"20 µM [falling, partial curve]"
9,O=C(Nc1cccc(-c2nnc(-c3ccccc3)o2)c1)c1ccc(Br)o1,"10 µM [falling, partial curve]"
10,COc1ccc(OC)c(CCNC(=O)C2=C(C)C(=O)OC23CCC(C)CC3)c1 (centres undefined),"39.8 µM [falling, single point]"
11,O=C(Cn1nc(C(F)(F)F)c2c1CCC2)Nc1ccc(Cl)cc1,"39.8 µM [falling, single point]"
12,CCC(=O)OCC(=O)[C@@]1(OC(=O)CC)[C@H](C)C[C@@H]2[C@H]3CCC4=CC(=O)C=C[C@]4(C)[C@]3(Cl)[C@@H](O)C[C@@]21C,"2.51 nM [rising, full curve] [measured here: IkB-luc green channel]"
13,Fc1ccc(-c2cc(C(F)(F)F)nc(N3CCCCC3)n2)cc1,"63.1 nM [rising, full curve, poor fit] [measured here: IkB-luc green channel]"
14,COc1cc(CN(C(=O)c2cccc(C)c2)c2ccccn2)cc(OC)c1OC,"15.8 µM [falling, partial curve, poor fit]"
15,CC(C)CCn1c(N)c(S(=O)(=O)c2cccs2)c2nc3ccccc3nc21,"20 µM [falling, partial curve]"
16,COC(=O)C1=C(C)Nc2nnnn2C1c1ccc(Cl)cc1Cl (centres undefined),"25.1 µM [falling, partial curve]"
17,CCN(C(=O)CN(C)S(=O)(=O)c1ccc2c(c1)n(C)c(=O)c(=O)n2C)c1cccc(C)c1,"39.8 µM [falling, single point]"
18,CN(C)c1ccc(C(CNS(=O)(=O)c2cc(F)ccc2F)N2CCOCC2)cc1 (centres undefined),"0.02 µM [rising, full curve, poor fit]"
19,Cc1csc(SCC(=O)c2cc(C)n(Cc3cccs3)c2C)n1,"31.6 µM [falling, partial curve]"
